PubChem BioAssay AID1224828 | NIAID – 2016
Aim: 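Find genes required for NF-kappaB p65 moving into the nucleus after LPS in mouse macrophages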 (primary screen). Cells: mouse RAW264.7 G9 macrophage reporter cells (GFP-p65, Tnf promoter-mCherry). Reagents: siRNA pool against mouse genes, 100 nM. Duration: 2 days siRNA transfection, then 40 min LPS before fixation. Treatment: LPS (Salmonella minnesota R595) at 10 ng/ml. Detection: 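Microscopy ratio of nuclear to perinuclear-ring GFP-p65 signal, scaled to the plate median; gene score is the average of two replicate robust z-scores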. Scale: p65 translocation robust z-score: higher = more nuclear NF-kappaB p65 after LPS than the plate median; nuclear/cytoplasmic p65 ratio: higher = more nuclear NF-kappaB p65. Rule for the call: 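Called active when z exceeds 3.3 or falls under -1.56 (median of Tlr4 controls), giving activity score of at least 50; no calls for control wells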. Calls: active = hit (p65 shift raised or lowered); inactive = no clear change.
In all, the deposit lists about 17,000 reagents; this is a random part of them. In the full data, 762 (4.5%) got an active call. 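Active calls include both raised and lowered p65 entry, mostly lowered; wells with fewer than 50 cells lack a z-score.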 Raw values vary from plate to plate and are shown uncorrected. A number with no mark means an inactive call. Reagents against one gene are numbered here. No sequences are given here.

| target | reagent no. | p65 translocation robust z-score | nuclear/cytoplasmic p65 ratio, rep 1 | nuclear/cytoplasmic p65 ratio, rep 2 | low cell count flag |
| --- | --- | --- | --- | --- | --- |
| Nrip3 (nuclear receptor interacting protein 3) | 1 | 0.63 | 1.83 | 1.55 | enough cells to score |
| Fgf18 (fibroblast growth factor 18) | 1 | -0.93 | 1.26 | 1.27 | enough cells to score |
| Vsig8 (V-set and immunoglobulin domain containing 8) | 1 | – | 1.08 | 1.04 | fewer than 50 cells per well; well left out of scoring |
| Prss35 (serine protease 35) | 1 | -0.65 | 1.32 | 1.33 | enough cells to score |
| Map1s (microtubule-associated protein 1S) | 1 | 2.72 | 1.42 | 1.83 | enough cells to score |
| Ccl11 (C-C motif chemokine ligand 11) | 1 | 1.55 | 1.64 | 1.61 | enough cells to score |
| Syt1 (synaptotagmin I) | 1 | 1.25 | 1.61 | 1.85 | enough cells to score |
| Fhl2 (four and a half LIM domains 2) | 1 | -1.12 | 1.46 | 1.28 | enough cells to score |
| Sugt1 (SGT1, suppressor of G2 allele of SKP1 (S. cerevisiae)) | 1 | – | 1.34 | 1.14 | fewer than 50 cells per well; well left out of scoring |
| Gata3 (GATA binding protein 3) | 1 | 0.15 | 1.47 | 1.37 | enough cells to score |
| Comp (cartilage oligomeric matrix protein) | 1 | 2.33 | 1.93 | 1.56 | enough cells to score |
| Cdc25c (cell division cycle 25C) | 1 | 0.52 | 1.48 | 1.49 | enough cells to score |
| Vapb | 1 | 0.72 | 1.52 | 1.28 | enough cells to score |
| Tmem145 (transmembrane protein 145) | 1 | -0.12 | 1.46 | 1.94 | enough cells to score |
| Fabp3 (fatty acid binding protein 3, muscle and heart) | 1 | 0.31 | 1.58 | 1.35 | enough cells to score |
| Trdn (triadin) | 1 | 0.61 | 1.48 | 1.23 | enough cells to score |
| Trim17 (tripartite motif-containing 17) | 1 | – | 1.33 | 1.17 | fewer than 50 cells per well; well left out of scoring |
| Zkscan5 (zinc finger with KRAB and SCAN domains 5) | 1 | 0.04 | 1.5 | 1.53 | enough cells to score |
| Htr2b (5-hydroxytryptamine (serotonin) receptor 2B) | 1 | – | 1.28 | 1.06 | fewer than 50 cells per well; well left out of scoring |
| Msl1 (male specific lethal 1) | 1 | 0.16 | 1.3 | 1.32 | enough cells to score |
| Bhlhe23 (basic helix-loop-helix family, member e23) | 1 | – | 1.22 | 1.51 | fewer than 50 cells per well; well left out of scoring |
| Kdsr (3-ketodihydrosphingosine reductase) | 1 | -0.46 | 1.39 | 1.3 | enough cells to score |
| Dlg1 (discs large MAGUK scaffold protein 1) | 1 | -0.89 | 1.74 | 1.27 | enough cells to score |
| Tent2 (terminal nucleotidyltransferase 2) | 1 | – | 1.92 | 1.37 | fewer than 50 cells per well; well left out of scoring |
| Lrrc20 (leucine rich repeat containing 20) | 1 | – | 1.45 | 1.22 | fewer than 50 cells per well; well left out of scoring |
| Sfxn5 (sideroflexin 5) | 1 | – | 1.11 | 1.33 | fewer than 50 cells per well; well left out of scoring |
| Ssbp2 (single-stranded DNA binding protein 2) | 1 | 0.87 | 1.53 | 1.33 | enough cells to score |
| Slc25a14 | 1 | -1.29 | 1.22 | 1.12 | enough cells to score |
| Nit1 (nitrilase 1) | 1 | -0.87 | 1.6 | 1.39 | enough cells to score |
| Ckb (creatine kinase, brain) | 1 | 0.95 | 1.82 | 1.52 | enough cells to score |
| Col1a2 (collagen, type I, alpha 2) | 1 | -0.79 | 1.3 | 1.33 | enough cells to score |
| Fastkd2 (FAST kinase domains 2) | 1 | -0.28 | 1.22 | 1.25 | enough cells to score |
| Ticam1 (TIR domain containing adaptor molecule 1) | 1 | -1.27 | 1.39 | 1.36 | enough cells to score |
| Orai3 (ORAI calcium release-activated calcium modulator 3) | 1 | -0.48 | 1.44 | 1.46 | enough cells to score |
| Dennd4a (DENN domain containing 4A) | 1 | 0.96 | 1.63 | 1.89 | enough cells to score |
| Dennd4a (DENN domain containing 4A) | 2 | -0.45 | 1.56 | 1.37 | enough cells to score |
| Dpyd (dihydropyrimidine dehydrogenase) | 1 | -1.3 | 1.4 | 1.2 | enough cells to score |
| Cited1 | 1 | -0.74 | 1.34 | 1.29 | enough cells to score |
| Mogat1 (monoacylglycerol O-acyltransferase 1) | 1 | 1.49 | 2.02 | 1.82 | enough cells to score |
| Nectin1 (nectin cell adhesion molecule 1) | 1 | 0.75 | 1.63 | 1.61 | enough cells to score |
| Ly6g5b (lymphocyte antigen 6 family member G5B) | 1 | 0.56 | 1.94 | 1.51 | enough cells to score |
| Nol3 (nucleolar protein 3 (apoptosis repressor with CARD domain)) | 1 | -0.3 | 1.43 | 1.35 | enough cells to score |
| Mbtd1 (mbt domain containing 1) | 1 | -0.46 | 1.38 | 1.29 | enough cells to score |
| Or5p68 (olfactory receptor family 5 subfamily P member 68) | 1 | – | 1.62 | 1.29 | fewer than 50 cells per well; well left out of scoring |
| Nxpe4 (neurexophilin and PC-esterase domain family, member 4) | 1 | -0.03 | 1.35 | 1.6 | enough cells to score |
| Ppia (peptidylprolyl isomerase A) | 1 | -1.4 | 1.17 | 1.08 | enough cells to score |
| Ak3 (adenylate kinase 3) | 1 | -0.64 | 1.51 | 1.36 | enough cells to score |
| Pygl (liver glycogen phosphorylase) | 1 | 1.47 | 1.74 | 1.8 | enough cells to score |
| Rhox11 (reproductive homeobox 11) | 1 | -0.27 | 1.28 | 1.49 | enough cells to score |
| Rdh5 (retinol dehydrogenase 5) | 1 | -0.53 | 1.44 | 1.45 | enough cells to score |
| Iba57 (IBA57 iron-sulfur cluster assembly factor) | 1 | – | 1.26 | 1.34 | fewer than 50 cells per well; well left out of scoring |
| Iba57 (IBA57 iron-sulfur cluster assembly factor) | 2 | -0.37 | 1.28 | 1.48 | enough cells to score |
| Asic4 (acid-sensing ion channel family member 4) | 1 | -0.11 | 1.57 | 1.68 | enough cells to score |
| Bnc2 (basonuclin zinc finger protein 2) | 1 | -0.46 | 1.12 | 1.46 | enough cells to score |
| Eif3l (eukaryotic translation initiation factor 3, subunit L) | 1 | -0.96 | 1.28 | 1.29 | enough cells to score |
| Hoxc6 (homeobox C6) | 1 | 0.65 | 1.51 | 1.47 | enough cells to score |
| Unc45b (unc-45 myosin chaperone B) | 1 | 0.4 | 1.67 | 1.83 | enough cells to score |
| Ptges3 (prostaglandin E synthase 3) | 1 | 0.23 | 1.55 | 1.56 | enough cells to score |
| Pax5 (paired box 5) | 1 | -0.17 | 1.51 | 1.31 | enough cells to score |
